Source: PubChem BioAssay (Tox21)
Several values for one entry are separate records, joined by “and”; a condition that tells them apart may be missing. Equal values may be shown once. Inconclusive results, whose numbers are uncertain, are shown with a selection of clear calls. Potencies of inconclusive entries are doubtful fits and often do not repeat. Activity calls are given as the source filed them. Calls come from the whole dose curve.

Test: p53 small molecule agonists, cell-based qHTS assay: qHTS cell viability counter screen (AID 1963581); note: nearly all actives have a fitted effect of over 45% in size
Conditions: p53RE-bla HCT-116 viability, ATP luminescence, 16 h; series mostly up to 66 µM; activity change, negative = cytotoxicity: at the top concentration
Summary of the method: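 Multiplexed with the reporter read, a CellTiter-Glo step (30 min, room temperature) gauges ATP-based viability of HCT-116 p53RE-bla cells after 16 h compound incubation at 37 C.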
% is set by controls: 0 for no effect and ±100 for the full control effect; potency is the fitted concentration of half-maximal effect.

| Compound | Potency | activity change, negative = cytotoxicity |
| --- | --- | --- |
| OCc1c[nH]c2ccccc12 | inconclusive: 0.576 µM [rising, partial curve, poor fit] |  |
| O=C(c1cc(O)c(O)c(O)c1)c1ccc(O)c(O)c1O | inconclusive: 0.408 µM [cytotoxic, single point] |  |
| COC(=O)Nc1nc2ccc(Sc3ccccc3)cc2[nH]1 | inconclusive: 576 nM [rising, full curve] and inconclusive: 500 nM [rising, full curve] |  |
| NC(=O)c1ccccc1O | inactive |  |
| CCc1c2c(nc3ccc(OC(=O)N4CCC(N5CCCCC5)CC4)cc13)-c1cc3c(c(=O)n1C2)COC(=O)[C@]3(O)CC | inconclusive: 0.141 µM [rising, partial curve] |  |
| CCN(C)C(=O)Oc1cccc([C@H](C)N(C)C)c1 |  | inactive: -3.37% [at 30.3 µM] |
| Cc1c2ccccc2c(C)c2c1ccc1ccccc12 | inconclusive: 10.1 µM [rising, full curve, poor fit] |  |
| O=c1[nH][nH]c2ccccc12 | inconclusive: 26.2 µM [rising, partial curve] |  |
| CC(=O)c1ccc2c(c1)N(CCCN(C)C)c1ccccc1S2 | inconclusive: 19.9 µM [rising, single point] |  |
| CN(C)[C@@H]1C(=O)C(C(N)=O)=C(O)[C@@]2(O)C(=O)C3=C(O)c4c(O)cccc4C[C@H]3C[C@@H]12 | inconclusive: 22.3 µM [cytotoxic, single point] |  |
| CCn1c2ccccc2c2cc(N)ccc21 | inconclusive: 51.3 µM [rising, single point] |  |

2 compounds drawn at random from those above, as already listed:

| Compound | Potency | activity change, negative = cytotoxicity |
| --- | --- | --- |
| COC(=O)Nc1nc2ccc(Sc3ccccc3)cc2[nH]1 | inconclusive: 576 nM [rising, full curve] and inconclusive: 500 nM [rising, full curve] |  |
| O=c1[nH][nH]c2ccccc12 | inconclusive: 26.2 µM [rising, partial curve] |  |
